Source: article PMC10776755
No constants are given. Whether binding was seen depends on the method and setting. In cells and extracts the contact can be indirect. Some results given as binding are weak or reduced against the parent protein; the word gives no strength. Sequences can lack the tags named with a protein.

Columns and labels:
[1] = molecular target: T1, Flag-tagged PRDX3 (human) (UniProt P30048); assay: co-IP; HA-tagged TRIM39 and Flag-tagged PRDX3; cells collected in RIPA buffer, lysates incubated with antibody or control IgG at 4°C for 10 hours, western blot
T1 sequence: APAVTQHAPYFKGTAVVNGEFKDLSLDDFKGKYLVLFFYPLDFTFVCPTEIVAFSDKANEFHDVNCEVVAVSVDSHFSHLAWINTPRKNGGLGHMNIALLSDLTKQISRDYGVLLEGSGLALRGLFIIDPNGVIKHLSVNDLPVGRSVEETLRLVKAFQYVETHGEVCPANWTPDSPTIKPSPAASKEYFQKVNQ

PRDX3 101-256aa (human) = molecular target: T2, PRDX3 101-256aa (human) (UniProt P30048); assay: co-IP; Co-IP with domain deletion mutants of TRIM39 (Δ R, Δ B, Δ SPRY) and fragments of PRDX3 (1-100aa, 1-150aa, 101-150aa, 101-256aa)
T2 sequence: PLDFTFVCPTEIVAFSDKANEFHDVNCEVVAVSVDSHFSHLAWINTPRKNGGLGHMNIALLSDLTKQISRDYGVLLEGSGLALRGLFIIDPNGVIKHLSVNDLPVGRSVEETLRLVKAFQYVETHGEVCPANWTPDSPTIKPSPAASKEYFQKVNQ

[2] = molecular target: T3, PRDX3 (GST pull-down assay) (human) (UniProt P30048); assay: pull-down; GST pull-down assay; which protein carried GST is not told
T3 sequence: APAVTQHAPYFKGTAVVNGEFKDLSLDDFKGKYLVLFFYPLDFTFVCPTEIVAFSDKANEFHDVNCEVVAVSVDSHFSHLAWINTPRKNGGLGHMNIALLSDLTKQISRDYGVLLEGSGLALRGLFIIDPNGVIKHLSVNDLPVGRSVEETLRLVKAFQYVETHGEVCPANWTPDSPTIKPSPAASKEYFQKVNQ

| Binder | binding [1] | binding (PRDX3 101-256aa (human)) | binding [2] |
| --- | --- | --- | --- |
| HA-tagged TRIM39 (protein, UniProt Q9HCM9 1-518) MAETSLLEAGASAASTAAALENLQVEASCSVCLEYLKEPVIIECGHNFCKACITRWWEDLERDFPCPVCRKTSRYRSLRPNRQLGSMVEIAKQLQAVKRKIRDESLCPQHHEALSLFCYEDQEAVCLICAISHTHRAHTVVPLDDATQEYKEKLQKCLEPLEQKLQEITRCKSSEEKKPGELKRLVESRRQQILREFEELHRRLDEEQQVLLSRLEEEEQDILQRLRENAAHLGDKRRDLAHLAAEVEGKCLQSGFEMLKDVKSTLEKNIPRKFGGSLSTICPRDHKALLGLVKEINRCEKVKTMEVTSVSIELEKNFSNFPRQYFALRKILKQLIADVTLDPETAHPNLVLSEDRKSVKFVETRLRDLPDTPRRFTFYPCVLATEGFTSGRHYWEVEVGDKTHWAVGVCRDSVSRKGELTPLPETGYWRVRLWNGDKYAATTTPFTPLHIKVKPKRVGIFLDYEAGTLSFYNVTDRSHIYTFTDTFTEKLWPLFYPGIRAGRKNAAPLTIRPPTDWE | binds | binds | – |
| TRIM39 (GST pull-down assay) (protein, UniProt Q9HCM9 1-518) MAETSLLEAGASAASTAAALENLQVEASCSVCLEYLKEPVIIECGHNFCKACITRWWEDLERDFPCPVCRKTSRYRSLRPNRQLGSMVEIAKQLQAVKRKIRDESLCPQHHEALSLFCYEDQEAVCLICAISHTHRAHTVVPLDDATQEYKEKLQKCLEPLEQKLQEITRCKSSEEKKPGELKRLVESRRQQILREFEELHRRLDEEQQVLLSRLEEEEQDILQRLRENAAHLGDKRRDLAHLAAEVEGKCLQSGFEMLKDVKSTLEKNIPRKFGGSLSTICPRDHKALLGLVKEINRCEKVKTMEVTSVSIELEKNFSNFPRQYFALRKILKQLIADVTLDPETAHPNLVLSEDRKSVKFVETRLRDLPDTPRRFTFYPCVLATEGFTSGRHYWEVEVGDKTHWAVGVCRDSVSRKGELTPLPETGYWRVRLWNGDKYAATTTPFTPLHIKVKPKRVGIFLDYEAGTLSFYNVTDRSHIYTFTDTFTEKLWPLFYPGIRAGRKNAAPLTIRPPTDWE | – | – | binds |
